These are yes or no findings as the source states them, for the method shown. Binding seen in cells or lysates may run through a third protein. Here binding means that the protein was enriched with, or labelled near, the bait; the list need not be complete.
Target: human epidermal growth factor receptor 2 (HER2) (human (endogenous in breast cancer specimens and SK-BR-3)) (UniProt P04626)
Test: affinity purification with mass spectrometry; RIME on human breast cancer specimens (Cases 1, 2 and 3): cryosections fixed in 1% formaldehyde for 20 min, lysed and sonicated; endogenous HER2 immunoprecipitated with anti-HER2 antibody 3B5 (ab16901) on Dynabeads Protein G overnight at 4 °C; washed with RIPA and AMBIC; on-bead trypsin digestion; LC-MS/MS with label-free quantification against mouse IgG control

B1: Myristoylated Alanine-Rich C Kinase Substrate (MARCKS) (protein, UniProt P29966 1-332)
chain: MGAQFSKTAAKGEAAAERPGEAAVASSPSKANGQENGHVKVNGDASPAAAESGAKEELQANGSAPAADKEEPAAAGSGAASPSAAEKGEPAAAAAPEAGASPVEKEAPAEGEAAEPGSPTAAEGEAASAASSTSSPKAEDGATPSPSNETPKKKKKRFSFKKSFKLSGFSFKKNKKEAGEGGEAEAPAAEGGKDEAAGGAAAAAAEAGAASGEQAAAPGEEAAAGEEGAAGGDPQEAKPQEAAVAPEKPPASDETKAAEEPSKVEEKKAEEAGASAAACEAPSAAGPGAPPEQEAAPAEEPAAAAASSACAAPSQEAQPECSPEAPPAEAAE
With B1 the binding was “binds”.

From article PMC12428157
